{
  "source": "PubChem BioAssay AID445",
  "about": "(National Center for Advancing Translational Sciences (NCATS), 2006)",
  "test": "IkB Signaling",
  "details": "ABC-DLBCL IkBa-CBG/CBR dual luciferase ratio (green luciferase fused to IkBa over red control in OCI-Ly3 lymphoma cells), 4 h",
  "outline": "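Curves were fitted separately to fusion (green), unfused (red) and ratio luminescence, then classed by r2, magnitude and activity. Cells: OCI-Ly3, 4 h compound plus doxycycline at 37C; 10 uM MG-132 defined full response.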",
  "key": {"[1]": {"details": "measured here: control luc red channel unless noted"}},
  "note": "The list shows a part of the results. These are further read-outs of the screen, such as a control signal, another cell line or another target. No call is given for them. Most of these compounds were active or inconclusive in the main read-out, so they are no random draw. Potencies come from curve fits of mixed quality, noted in brackets.",
  "data": [
    {"molecule": "CCc1sc(Nc2cccc(C)c2)nc1-c1cc2cccc(OC)c2oc1=O", "values": [
      {"measurement": "AC50", "setting": "[1]", "result": "7.94 µM [falling, full curve]"}
    ]},
    {"molecule": "Cc1ccc(S(=O)(=O)N2CCc3cc(C(=O)N(C)Cc4ccccc4)ccc32)cc1", "values": [
      {"measurement": "AC50", "setting": "[1]", "result": "25.1 µM [falling, single point]"}
    ]},
    {"molecule": "COc1ccc(S(=O)(=O)c2c(O)c(C)cc(NS(=O)(=O)c3ccc(Cl)cc3)c2C(C)C)cc1", "values": [
      {"measurement": "AC50", "setting": "[1]", "result": "12.6 µM [falling, partial curve]"}
    ]},
    {"molecule": "Cc1ccc2c(c1)C(c1ccccc1)N(C(=O)c1ccc(S(=O)(=O)N3CCCC3)cc1)CC(=O)N2", "note": "(stereo unspecified)", "values": [
      {"measurement": "AC50", "setting": "[1]", "result": "1 µM [falling, partial curve]"}
    ]},
    {"molecule": "Nc1nc(NC(=O)c2cccnc2)nn1-c1ccccc1", "values": [
      {"measurement": "AC50", "setting": "[1]", "result": "12.6 µM [falling, partial curve]"}
    ]},
    {"molecule": "COc1ccc2sc(N(Cc3cccnc3)C(=O)c3cccs3)nc2c1", "values": [
      {"measurement": "AC50", "setting": "[1]", "result": "15.8 µM [falling, partial curve]"}
    ]},
    {"molecule": "COc1ccc2sc(N(Cc3cccnc3)C(=O)C3COc4ccccc4O3)nc2c1", "note": "(stereo unspecified)", "values": [
      {"measurement": "AC50", "setting": "[1]", "result": "2.51 µM [rising, partial curve, poor fit]"}
    ]},
    {"molecule": "COc1ccc(-c2nn(-c3ccccc3)cc2C(=O)Nc2nc(CC(C)=O)ns2)cc1", "values": [
      {"measurement": "AC50", "setting": "[1]", "result": "20 µM [falling, partial curve]"}
    ]},
    {"molecule": "CCOC(=O)/C(C#N)=C/c1ccc(-c2ccccc2)o1", "values": [
      {"measurement": "AC50", "setting": "[1]", "result": "39.8 µM [falling, single point]"}
    ]},
    {"molecule": "O=C(OCC(=O)N(C1CCCCC1)C1CCCCC1)c1ccncc1", "values": [
      {"measurement": "AC50", "setting": "[1]", "result": "15.8 µM [falling, partial curve]"}
    ]},
    {"molecule": "O=C(Cn1cc2c(n1)CCCC2)Nc1cc(C(F)(F)F)ccc1Cl", "values": [
      {"measurement": "AC50", "setting": "[1]", "result": "15.8 µM [rising, partial curve, poor fit]"}
    ]},
    {"molecule": "FC(F)(F)c1ccc(N2CCOCC2)c(Nc2nc3ccccc3n3cnnc23)c1", "values": [
      {"measurement": "AC50", "setting": "[1]", "result": "10 µM [falling, partial curve]"}
    ]},
    {"molecule": "Cc1nc(SCc2ccccc2Cl)c(C#N)c(C)c1C", "values": [
      {"measurement": "AC50", "setting": "[1]", "result": "0.316 µM [rising, full curve]"}
    ]},
    {"molecule": "Cc1cc(C)cc(NC(=O)c2sc3nc4n(c(=O)c3c2C)N=C(c2ccc(F)cc2)CS4)c1", "values": [
      {"measurement": "AC50", "setting": "[1]", "result": "6.31 µM [rising, single point]"}
    ]},
    {"molecule": "COC(=O)c1ccccc1NC(=O)CCC(=O)N1CC(C)Sc2ccccc21", "note": "(stereo unspecified)", "values": [
      {"measurement": "AC50", "setting": "[1]", "result": "15.8 µM [falling, partial curve]"}
    ]},
    {"molecule": "COC(=O)C(NC(=O)CCc1c(C)nc2cc(-c3cccc(F)c3)nn2c1C)C(C)C", "note": "(stereo unspecified)", "values": [
      {"measurement": "AC50", "setting": "[1]", "result": "2.51 µM [falling, partial curve]"}
    ]},
    {"molecule": "CCC(Cc1ccccc1)NC(=O)CCS(=O)(=O)c1cc2c(cc1Cl)NC(=O)CO2", "note": "(stereo unspecified)", "values": [
      {"measurement": "AC50", "setting": "[1]", "result": "25.1 µM [falling, single point]"}
    ]},
    {"molecule": "CCOc1ccc2c(c1)c(=O)c(C(=O)c1ccc3c(c1)OCO3)cn2Cc1cccc(F)c1", "values": [
      {"measurement": "AC50", "setting": "[1]", "result": "39.8 µM [falling, single point]"}
    ]},
    {"molecule": "CCOc1ccc(-n2c(C)nc3cc(C(=O)NCc4ccc(C)cc4)ccc32)cc1", "values": [
      {"measurement": "AC50", "setting": "[1]", "result": "39.8 µM [falling, partial curve]"}
    ]},
    {"molecule": "COC(=O)Nc1nc2ccc(C(=O)c3ccccc3)cc2[nH]1", "values": [
      {"measurement": "AC50", "setting": "measured here: IkB-luc green channel", "result": "1.26 µM [rising, full curve]"},
      {"measurement": "AC50", "setting": "measured here: control luc red channel", "result": "1.58 µM [rising, full curve]"}
    ]},
    {"molecule": "CCn1c(=O)cc(SCC(=O)Nc2cc(Cl)ccc2OC)c2ccccc21", "values": [
      {"measurement": "AC50", "setting": "[1]", "result": "20 µM [falling, partial curve]"}
    ]},
    {"molecule": "Cc1ccc(C(=O)Nc2nnc(S(=O)(=O)N(C)Cc3ccc(F)cc3)s2)cc1", "values": [
      {"measurement": "AC50", "setting": "[1]", "result": "3.16 µM [falling, single point]"}
    ]},
    {"molecule": "CCOc1ccc(-c2nnc(SCC(=O)Oc3ccccc3)o2)cc1", "values": [
      {"measurement": "AC50", "setting": "[1]", "result": "7.94 µM [falling, full curve]"}
    ]},
    {"molecule": "O=C(CCCCCN1C(=O)c2ccccc2C1=O)Nc1ccc(S(=O)(=O)N2CCCCC2)cc1", "values": [
      {"measurement": "AC50", "setting": "[1]", "result": "15.8 µM [falling, partial curve]"}
    ]},
    {"molecule": "CSc1ccc(NC(=O)NCCCN2CCN(c3ccccc3F)CC2)cc1", "values": [
      {"measurement": "AC50", "setting": "[1]", "result": "10 µM [falling, partial curve]"}
    ]},
    {"molecule": "CC1CCCN(c2nc(-c3ccccc3O)nc3ccccc23)C1", "note": "(stereo unspecified)", "values": [
      {"measurement": "AC50", "setting": "[1]", "result": "31.6 µM [falling, partial curve, poor fit]"}
    ]},
    {"molecule": "O=c1c2c3c(sc2nnn1Cc1ccc(F)cc1)CCCC3", "values": [
      {"measurement": "AC50", "setting": "[1]", "result": "0.00631 µM [rising, full curve, poor fit]"}
    ]},
    {"molecule": "CCc1cccc(NC(=O)CSc2n[nH]c(-c3ccccc3Cl)n2)c1", "values": [
      {"measurement": "AC50", "setting": "[1]", "result": "39.8 µM [falling, partial curve]"}
    ]},
    {"molecule": "O=C(Nc1ccc2nc(SCCOc3ccccc3Cl)sc2c1)c1ccco1", "values": [
      {"measurement": "AC50", "setting": "[1]", "result": "25.1 µM [falling, single point]"}
    ]},
    {"molecule": "Cc1nnc(N2CCN(c3cccc(Cl)c3)CC2)c2c1nnn2Cc1ccc(F)cc1", "values": [
      {"measurement": "AC50", "setting": "[1]", "result": "12.6 µM [falling, partial curve]"}
    ]},
    {"molecule": "COc1cccc(-c2nn(C)c3sc(C(=O)NCCc4cccc(C)c4)cc23)c1", "values": [
      {"measurement": "AC50", "setting": "[1]", "result": "2 µM [falling, full curve]"}
    ]},
    {"molecule": "N=C(N)SCCc1ccc(OCc2ccc([N+](=O)[O-])cc2)cc1", "values": [
      {"measurement": "AC50", "setting": "[1]", "result": "31.6 µM [falling, partial curve]"}
    ]},
    {"molecule": "CCOc1ccc(OCC)c(NC(=O)c2cnn(-c3ccc(F)cc3)c2C2CCN(C(=O)OC(C)(C)C)CC2)c1", "values": [
      {"measurement": "AC50", "setting": "[1]", "result": "10 µM [falling, partial curve]"}
    ]},
    {"molecule": "CCC(=O)N1CCCc2cc(S(=O)(=O)N3CCN(c4ccccc4F)CC3)ccc21", "values": [
      {"measurement": "AC50", "setting": "[1]", "result": "12.6 µM [falling, partial curve]"}
    ]},
    {"molecule": "COc1cc(N2C(=O)CSC23C(=O)N(Cc2cccc(F)c2)c2ccccc23)cc(OC)c1OC", "note": "(stereo unspecified)", "values": [
      {"measurement": "AC50", "setting": "[1]", "result": "15.8 µM [falling, partial curve]"}
    ]},
    {"molecule": "CCOC(=O)Cn1c(=O)n(CC2CCCO2)c2nc(-c3ccc(OCC)cc3)nc(C(N)=O)c21", "note": "(stereo unspecified)", "values": [
      {"measurement": "AC50", "setting": "[1]", "result": "0.398 µM [falling, full curve]"}
    ]},
    {"molecule": "COc1ccccc1Nc1c2c(nc3ccc(NC(=O)c4ccc(OC)c(OC)c4)cc13)CCCC2", "values": [
      {"measurement": "AC50", "setting": "[1]", "result": "31.6 µM [falling, partial curve]"}
    ]},
    {"molecule": "Cc1ccc(-n2ncc(C(=O)NCc3ccccc3)c2C2CCN(C(=O)OC(C)(C)C)CC2)cc1", "values": [
      {"measurement": "AC50", "setting": "[1]", "result": "20 µM [falling, partial curve]"}
    ]},
    {"molecule": "CCOC(=O)c1cc(-c2ccc(OC)c(S(=O)(=O)NC3CCCCC3)c2)on1", "values": [
      {"measurement": "AC50", "setting": "[1]", "result": "31.6 µM [falling, single point]"}
    ]},
    {"molecule": "Cn1c(=O)[nH]c(=O)c2c1nc(Sc1nc3ccccc3s1)n2Cc1ccccc1", "values": [
      {"measurement": "AC50", "setting": "[1]", "result": "39.8 µM [falling, single point]"}
    ]}
  ]
}
